These are yes or no findings as the source states them, for the method shown. Binding can be weak; no strength is given.
Molecular target: PLATZ4-BD (Arabidopsis thaliana)
Test: two-hybrid

B1: Di19-3 (protein, UniProt Q84J70 1-223)
chain: MDSDSWSDRLASATRRYQLAFPSRSDTFLGFEEIDGEEEFREEFACPFCSDYFDIVSLCCHIDEDHPMEAKNGVCPVCAVRVGVDMVAHITLQHANIFKMHRKRKPRRGGSYSTLSILRREFPDGNFQSLFGGSSCIVSSSSSSNVAADPLLSSFISPIADGFFTTESCISAETGPVKKTTIQCLPEQNAKKTSLSAEDHKQKLKRSEFVRELLSSTILDDSL
- binding: binds
